# Record: PubChem BioAssay AID1224828 (NIAID, 2016)
# Assay: 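Knock-downs that increase or decrease LPS-induced p65 nuclear translocation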 (primary screen)
# Cell system: mouse RAW264.7 G9 macrophage reporter cells (GFP-p65, Tnf promoter-mCherry)
# Reagent: siRNA pool against mouse genes, 100 nM
# Time to read-out: 2 days siRNA transfection, then 40 min LPS before fixation
# Treatment: LPS (Salmonella minnesota R595) at 10 ng/ml
# Measured: 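Microscopy ratio of nuclear to perinuclear-ring GFP-p65 signal, scaled to the plate median; gene score is the average of two replicate robust z-scores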
# Reading the numbers: p65 translocation robust z-score: higher = more nuclear NF-kappaB p65 after LPS than the plate median; nuclear/cytoplasmic p65 ratio: higher = more nuclear NF-kappaB p65
# Active means: 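Called active when z exceeds 3.3 or falls under -1.56 (median of Tlr4 controls), giving activity score of at least 50; no calls for control wells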
# Calls: active = hit (p65 shift raised or lowered); inactive = no clear change
# In all, the deposit lists about 17,000 reagents; below is a random part of them. 762 of them (4.5%) count as active. 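Active calls include both raised and lowered p65 entry, mostly lowered; wells with fewer than 50 cells lack a z-score.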 Raw values are not corrected between plates. A number with no mark means an inactive call.
gene,p65 translocation robust z-score,"nuclear/cytoplasmic p65 ratio, rep 1","nuclear/cytoplasmic p65 ratio, rep 2",low cell count flag
Dlx5 (distal-less homeobox 5),1.2,1.36,1.51,enough cells to score
Tmem82 (transmembrane protein 82),-1.13,1.55,1.37,enough cells to score
Gpr61 (G protein-coupled receptor 61),-2.56 (active),1.08,1.28,enough cells to score
"Sidt1 (SID1 transmembrane family, member 1)",0.07,1.58,1.87,enough cells to score
Nsf (N-ethylmaleimide sensitive fusion protein),-0.36,1.27,1.47,enough cells to score
Nrip2 (nuclear receptor interacting protein 2),-0.28,1.16,1.36,enough cells to score
Trpt1 (tRNA phosphotransferase 1),,1.48,1.22,fewer than 50 cells per well; well left out of scoring
A130050O07Rik (RIKEN cDNA A130050O07 gene),-1.21,1.24,1.36,enough cells to score
"Atp2a2 (ATPase, Ca++ transporting, cardiac muscle, slow twitch 2)",0.21,1.66,1.63,enough cells to score
"Eif2b2 (eukaryotic translation initiation factor 2B, subunit 2 beta)",0.35,1.55,1.38,enough cells to score
"Fam168b (family with sequence similarity 168, member B)",0.03,1.52,1.44,enough cells to score
Mnmip1 (manchette microtubule inner protein 1),1.65,1.57,1.67,enough cells to score
Phf5a (PHD finger protein 5A),1.92,1.69,1.46,enough cells to score
Speg (SPEG complex locus),0.85,1.78,1.72,enough cells to score
Setd4 (SET domain containing 4),,1.4,1.39,fewer than 50 cells per well; well left out of scoring
Snhg11 (small nucleolar RNA host gene 11),-0.58,1.29,1.46,enough cells to score
Nlk (nemo like kinase),-0.7,1.5,1.29,enough cells to score
Dck (deoxycytidine kinase),,1.6,1.38,fewer than 50 cells per well; well left out of scoring
"Lgi2 (leucine-rich repeat LGI family, member 2)",0.6,1.87,1.58,enough cells to score
Or5af2 (olfactory receptor family 5 subfamily AF member 2),-0.41,1.51,1.41,enough cells to score
Golga3 (golgin A3),-1.07,1.5,1.37,enough cells to score
Rhoj (ras homolog family member J),-1.34,1.35,1.3,enough cells to score
Tiam2 (T cell lymphoma invasion and metastasis 2),-0.21,1.39,1.13,enough cells to score
2410018L13Rik (RIKEN cDNA 2410018L13 gene),-0.99,1.32,1.28,enough cells to score

Reagents listed so far called active:
gene,p65 translocation robust z-score,"nuclear/cytoplasmic p65 ratio, rep 1","nuclear/cytoplasmic p65 ratio, rep 2",low cell count flag
Gpr61 (G protein-coupled receptor 61),-2.56 (active),1.08,1.28,enough cells to score
